One test concerns the target HDAC1-HA (UniProt Q13547). The test is described as follows: co-IP; YY1-EGFP cotransfected with HDAC1-HA or HDAC3-HA in HEK293T; lysed in IP buffer (10 mM Tris pH8.0, 150 mM NaCl, 1% NP-40, 1 mM EDTA, 10% glycerol); precipitated with anti-HA beads, blotted with anti-HA and anti-EGFP.
The target of the next test is HDAC3-HA (UniProt O15379). The test is described as above.
Test [1] deals with YY1-EGFP (Yin Yang 1, wild type) (UniProt P25490). The test is described as follows: co-IP; YY1-EGFP or YY1-6R-EGFP cotransfected with HDAC1-HA or HDAC3-HA in HEK293T; lysed in IP buffer (10 mM Tris pH8.0, 150 mM NaCl, 1% NP-40, 1 mM EDTA, 10% glycerol); precipitated with anti-EGFP beads, blotted with anti-EGFP and anti-HA.

Chains of the proteins cited; added tags and fusions are not shown.
UniProt Q13547: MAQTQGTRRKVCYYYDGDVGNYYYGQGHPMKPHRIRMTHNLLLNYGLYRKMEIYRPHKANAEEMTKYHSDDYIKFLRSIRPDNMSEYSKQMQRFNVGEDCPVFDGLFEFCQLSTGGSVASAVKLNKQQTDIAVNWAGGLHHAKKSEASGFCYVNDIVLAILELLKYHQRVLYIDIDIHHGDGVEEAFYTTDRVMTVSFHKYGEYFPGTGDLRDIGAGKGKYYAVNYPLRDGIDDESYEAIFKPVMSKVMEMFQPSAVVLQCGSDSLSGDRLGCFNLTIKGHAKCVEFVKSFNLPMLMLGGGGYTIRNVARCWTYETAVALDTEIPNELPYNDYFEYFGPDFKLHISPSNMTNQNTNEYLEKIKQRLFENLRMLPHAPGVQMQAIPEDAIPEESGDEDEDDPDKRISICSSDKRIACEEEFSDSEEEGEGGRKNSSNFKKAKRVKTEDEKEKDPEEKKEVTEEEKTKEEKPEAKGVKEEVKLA
UniProt O15379: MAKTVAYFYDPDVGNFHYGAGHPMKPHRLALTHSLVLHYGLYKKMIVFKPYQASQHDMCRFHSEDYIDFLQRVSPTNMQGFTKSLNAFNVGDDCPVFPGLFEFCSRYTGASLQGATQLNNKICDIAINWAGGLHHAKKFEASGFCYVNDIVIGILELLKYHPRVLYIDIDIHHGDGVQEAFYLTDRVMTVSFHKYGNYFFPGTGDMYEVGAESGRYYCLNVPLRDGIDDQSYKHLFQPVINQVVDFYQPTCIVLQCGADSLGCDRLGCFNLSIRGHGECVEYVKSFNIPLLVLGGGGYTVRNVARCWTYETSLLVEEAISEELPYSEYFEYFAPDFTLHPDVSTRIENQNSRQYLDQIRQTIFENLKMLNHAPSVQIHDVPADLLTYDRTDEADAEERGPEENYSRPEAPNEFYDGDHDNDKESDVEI
UniProt P25490: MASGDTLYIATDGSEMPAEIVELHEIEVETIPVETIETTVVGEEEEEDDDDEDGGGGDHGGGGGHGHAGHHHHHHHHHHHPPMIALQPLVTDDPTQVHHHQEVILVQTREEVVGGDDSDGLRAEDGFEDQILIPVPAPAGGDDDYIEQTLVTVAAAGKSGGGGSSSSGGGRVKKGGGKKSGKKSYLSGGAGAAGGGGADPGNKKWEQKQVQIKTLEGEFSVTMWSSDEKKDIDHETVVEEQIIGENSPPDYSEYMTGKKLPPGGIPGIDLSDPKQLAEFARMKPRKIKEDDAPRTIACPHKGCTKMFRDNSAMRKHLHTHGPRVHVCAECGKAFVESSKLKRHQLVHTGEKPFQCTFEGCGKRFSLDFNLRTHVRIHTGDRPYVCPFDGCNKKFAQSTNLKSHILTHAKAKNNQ

These are yes or no findings as the source states them, for the method shown. In cells and extracts the contact can be indirect. Some results given as binding are weak or reduced against the parent protein; the word gives no strength.

As to “YY1-EGFP (Yin Yang 1, wild type) (from UniProt P25490 1-414)”, the binding result with HDAC1-HA and in the test with HDAC3-HA was “binds” throughout.
With HDAC3-HA (from UniProt O15379 1-428), the binding result in test [1] is recorded as “binds”.
Regarding HDAC1-HA (from UniProt Q13547 1-482), in test [1], the binding entry is “binds”.

The values above are taken from PMC9691727.
